Results are given in words; binding and its absence hold for the method and conditions named. Binding seen in cells or lysates may run through a third protein. Binding calls can cover weak binding; strength is not graded here. Sequences can lack the tags named with a protein.
T1: SAPK6 (BiFC fusion) (rice (Oryza sativa L.)) (UniProt Q6ZI44)
T1 sequence: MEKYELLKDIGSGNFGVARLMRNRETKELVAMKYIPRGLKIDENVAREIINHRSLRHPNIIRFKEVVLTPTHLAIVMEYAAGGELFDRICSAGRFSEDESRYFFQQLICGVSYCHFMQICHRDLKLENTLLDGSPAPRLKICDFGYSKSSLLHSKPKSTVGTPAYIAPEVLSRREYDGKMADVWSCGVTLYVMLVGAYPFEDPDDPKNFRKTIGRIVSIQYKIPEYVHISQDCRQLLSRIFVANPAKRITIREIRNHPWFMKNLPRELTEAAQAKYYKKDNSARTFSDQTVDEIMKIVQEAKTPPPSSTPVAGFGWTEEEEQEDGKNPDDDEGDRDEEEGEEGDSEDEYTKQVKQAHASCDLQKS

Sequences of proteins named here, by UniProt entry; tags and fusion partners are left off. A change or cut given only in a name is not applied to a line headed by its entry.
UniProt Q6H8A9: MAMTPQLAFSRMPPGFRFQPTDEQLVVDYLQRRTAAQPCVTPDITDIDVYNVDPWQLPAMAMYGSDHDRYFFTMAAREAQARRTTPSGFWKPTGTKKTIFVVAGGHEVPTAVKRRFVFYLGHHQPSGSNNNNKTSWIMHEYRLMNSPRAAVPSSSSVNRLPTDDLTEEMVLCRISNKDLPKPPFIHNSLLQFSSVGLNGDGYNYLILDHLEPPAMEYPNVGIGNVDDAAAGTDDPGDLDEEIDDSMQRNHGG

T2: SAPK8 (BiFC fusion) (rice (Oryza sativa L.)) (UniProt Q7Y0B9)
T2 sequence: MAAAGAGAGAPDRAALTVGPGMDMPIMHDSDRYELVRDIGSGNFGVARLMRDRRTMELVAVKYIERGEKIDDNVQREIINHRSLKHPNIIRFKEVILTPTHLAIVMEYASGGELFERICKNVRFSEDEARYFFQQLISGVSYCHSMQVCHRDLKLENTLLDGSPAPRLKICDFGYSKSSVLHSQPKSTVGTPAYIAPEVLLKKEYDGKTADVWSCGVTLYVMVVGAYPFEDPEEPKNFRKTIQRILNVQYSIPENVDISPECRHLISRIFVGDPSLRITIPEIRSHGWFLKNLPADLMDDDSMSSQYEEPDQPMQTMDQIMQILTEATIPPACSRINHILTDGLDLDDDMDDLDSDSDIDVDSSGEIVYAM

B1: bZIP58 (BiFC fusion) (protein, UniProt Q6ZLB0 1-436)
chain: MEHVFAVDEIPDPLWAPPPPVQPAAAAGVDDVGAVSGGGLLERCPSGWNLERFLEELDGVPAPAASPDGAAIYPSPMPAAAAEAAARWSRGYGDREAVGVMPMPAAALPAAPASAAMDPVEYNAMLKRKLDEDLATVAMWRASGAIHSESPLGNKTSLSIVGSILSSQKCIEGNGILVQTKLSPGPNGGSGPYVNQNTDAHAKQATSGSSREPSPSEDDDMEGDAEAMGNMILDEEDKVKKRKESNRESARRSRSRKAARLKDLEEQVSLLRVENSSLLRRLADANQKYSAAAIDNRVLMADIEALRAKVRMAEESVKMVTGARQLHQAIPDMQSPLNVNSDASVPIQNNNPMNYFSNANNAGVNSFMHQVSPAFQIVDSVEKIDPTDPVQLQQQQMASLQHLQNRACGGGASSNEYTAWGSSLMDANELVNMELQ

Key:
Assay in all cases: split reporter; BiFC: CDS of bait and prey in pCAMBIA1300-35S-N-YFPC and pCAMBIA1300-35S-N-YFPN; Agrobacterium GV3101 infiltrated into leaf epidermal cells of 3 week old Nicotiana benthamiana; fluorescence seen after 36 h by confocal microscopy
[1] = target: T1, SAPK6 (BiFC fusion) (rice (Oryza sativa L.))
[2] = target: T2, SAPK8 (BiFC fusion) (rice (Oryza sativa L.))
[3] = target: P0524G08.124 (BiFC fusion) (rice (Oryza sativa L.))

| binding [1] | binding [2] | binding [3] | Molecule |
| --- | --- | --- | --- |
| binds | binds |  | OsNAC23 (BiFC fusion) (from UniProt Q6H8A9) |
|  |  | binds | B1 |

Source: article PMC11923860
